Experimental findings from doi:10.1101/2022.07.26.501605 are described below.

Assay [1] deals with T1, OpuAB (B. subtilis (endogenous in strain 168)) (UniProt P46921).
T1 sequence: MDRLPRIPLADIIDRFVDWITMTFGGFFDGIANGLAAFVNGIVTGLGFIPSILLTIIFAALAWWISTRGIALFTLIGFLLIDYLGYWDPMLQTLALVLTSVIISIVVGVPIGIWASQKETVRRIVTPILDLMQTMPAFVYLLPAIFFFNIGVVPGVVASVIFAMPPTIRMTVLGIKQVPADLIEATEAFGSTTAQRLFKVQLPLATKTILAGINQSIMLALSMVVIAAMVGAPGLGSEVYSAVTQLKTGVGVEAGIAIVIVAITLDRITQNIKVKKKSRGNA
The experiment in a line: cross-linking.

In assay [2] the target is T2, YsdC (B. subtilis (endogenous in strain 168)) (UniProt P94521).
T2 sequence: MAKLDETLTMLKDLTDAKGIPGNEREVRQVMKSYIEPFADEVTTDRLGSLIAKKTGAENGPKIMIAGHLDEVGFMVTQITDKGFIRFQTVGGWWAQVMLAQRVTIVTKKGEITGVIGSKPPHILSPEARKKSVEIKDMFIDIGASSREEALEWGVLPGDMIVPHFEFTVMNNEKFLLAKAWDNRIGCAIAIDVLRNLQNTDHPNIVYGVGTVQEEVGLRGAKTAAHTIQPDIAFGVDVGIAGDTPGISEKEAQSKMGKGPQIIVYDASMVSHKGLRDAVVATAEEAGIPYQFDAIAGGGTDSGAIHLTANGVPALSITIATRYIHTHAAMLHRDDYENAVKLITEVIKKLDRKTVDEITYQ
The experiment in a line: cross-linking.

Assay [3] deals with T3, PutC (B. subtilis (endogenous in strain 168)) (UniProt P94391).
T3 sequence: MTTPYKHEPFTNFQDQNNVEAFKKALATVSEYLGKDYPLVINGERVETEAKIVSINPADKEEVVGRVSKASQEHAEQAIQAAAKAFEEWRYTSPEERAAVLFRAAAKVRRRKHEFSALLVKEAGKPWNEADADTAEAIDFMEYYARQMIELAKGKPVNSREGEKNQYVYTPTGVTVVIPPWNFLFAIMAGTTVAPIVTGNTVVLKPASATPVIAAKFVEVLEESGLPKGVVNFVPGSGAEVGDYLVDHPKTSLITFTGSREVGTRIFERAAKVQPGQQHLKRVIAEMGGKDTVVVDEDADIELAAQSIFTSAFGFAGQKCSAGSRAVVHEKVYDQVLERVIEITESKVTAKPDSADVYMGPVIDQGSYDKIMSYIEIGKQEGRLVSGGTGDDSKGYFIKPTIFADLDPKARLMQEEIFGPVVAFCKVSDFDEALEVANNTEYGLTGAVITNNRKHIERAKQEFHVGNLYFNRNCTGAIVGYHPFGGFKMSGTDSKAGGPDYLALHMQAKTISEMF
The assay can be described thus: cross-linking.

In assay [4] the target is T4, LutB (B. subtilis (endogenous in strain 168)) (UniProt O07021).
T4 sequence: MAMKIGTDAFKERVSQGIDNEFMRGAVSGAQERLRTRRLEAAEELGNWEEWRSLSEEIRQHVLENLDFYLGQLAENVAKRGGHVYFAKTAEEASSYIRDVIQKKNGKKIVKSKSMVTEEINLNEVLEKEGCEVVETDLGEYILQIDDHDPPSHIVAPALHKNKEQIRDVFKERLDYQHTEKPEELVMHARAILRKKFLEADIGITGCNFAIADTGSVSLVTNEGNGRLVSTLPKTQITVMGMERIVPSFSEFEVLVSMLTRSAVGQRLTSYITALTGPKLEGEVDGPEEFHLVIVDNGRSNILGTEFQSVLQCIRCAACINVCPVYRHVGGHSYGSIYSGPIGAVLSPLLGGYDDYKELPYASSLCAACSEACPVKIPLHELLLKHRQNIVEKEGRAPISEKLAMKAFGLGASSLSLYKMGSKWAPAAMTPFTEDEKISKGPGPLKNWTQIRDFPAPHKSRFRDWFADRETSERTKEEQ
The assay can be described thus: cross-linking.

Substrate in the assay “cross-linking”: T5, B subunit of the glutamyl-tRNA amidotransferase (GatB) (B. subtilis (endogenous in strain 168)) (UniProt O30509)
T5 sequence: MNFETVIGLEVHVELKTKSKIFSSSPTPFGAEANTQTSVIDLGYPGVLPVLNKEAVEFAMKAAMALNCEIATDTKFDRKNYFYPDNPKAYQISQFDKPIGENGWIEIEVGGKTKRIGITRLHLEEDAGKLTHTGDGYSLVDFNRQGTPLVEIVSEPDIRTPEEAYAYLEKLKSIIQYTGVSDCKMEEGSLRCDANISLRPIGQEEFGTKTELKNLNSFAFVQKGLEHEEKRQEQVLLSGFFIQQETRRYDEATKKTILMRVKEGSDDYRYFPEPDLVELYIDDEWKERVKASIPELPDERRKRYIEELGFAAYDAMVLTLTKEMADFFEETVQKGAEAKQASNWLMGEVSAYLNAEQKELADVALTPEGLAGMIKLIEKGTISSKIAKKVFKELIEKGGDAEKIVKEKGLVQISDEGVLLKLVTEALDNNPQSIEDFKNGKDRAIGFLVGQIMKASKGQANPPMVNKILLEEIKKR
The assay can be described thus: cross-linking.

For assay [5], the target named is T6, AlaS, bacterial two-hybrid fusion (B. subtilis) (UniProt O34526).
T6 sequence: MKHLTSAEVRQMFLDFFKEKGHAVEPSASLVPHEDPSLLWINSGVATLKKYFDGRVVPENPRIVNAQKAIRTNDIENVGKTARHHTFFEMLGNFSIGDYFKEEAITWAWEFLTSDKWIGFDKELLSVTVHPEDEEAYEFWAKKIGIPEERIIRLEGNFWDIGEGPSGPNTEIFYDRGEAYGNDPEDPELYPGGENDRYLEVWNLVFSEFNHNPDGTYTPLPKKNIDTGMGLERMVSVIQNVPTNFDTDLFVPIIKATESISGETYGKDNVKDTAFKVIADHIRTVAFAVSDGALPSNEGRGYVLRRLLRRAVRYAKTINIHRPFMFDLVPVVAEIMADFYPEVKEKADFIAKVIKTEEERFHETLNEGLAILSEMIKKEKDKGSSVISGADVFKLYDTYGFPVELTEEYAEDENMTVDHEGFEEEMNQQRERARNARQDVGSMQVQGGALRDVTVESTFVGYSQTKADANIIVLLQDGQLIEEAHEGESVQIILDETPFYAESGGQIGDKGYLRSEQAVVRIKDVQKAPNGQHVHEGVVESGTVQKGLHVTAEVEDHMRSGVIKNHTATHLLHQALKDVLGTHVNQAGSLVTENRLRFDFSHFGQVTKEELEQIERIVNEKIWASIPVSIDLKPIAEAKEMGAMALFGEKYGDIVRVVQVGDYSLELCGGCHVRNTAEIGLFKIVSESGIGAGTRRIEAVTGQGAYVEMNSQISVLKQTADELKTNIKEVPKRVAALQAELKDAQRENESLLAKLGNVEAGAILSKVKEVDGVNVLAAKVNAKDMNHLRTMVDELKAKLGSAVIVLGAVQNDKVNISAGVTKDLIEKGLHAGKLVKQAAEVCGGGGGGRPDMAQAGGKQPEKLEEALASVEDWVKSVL
The assay can be described thus: two-hybrid.

These are yes or no findings as the source states them, for the method shown. For part of these data: Binding seen in cells or lysates may run through a third protein. Some entries that bind do so weakly or less than the wild type. For part of these data: Sequences can lack the tags named with a protein.

B1: OpuAA (protein, UniProt P46920 1-418)
chain: MSVDEKPIKIKVEKVSKIFGKQTKKAVQMLANGKTKKEILKATGSTVGVNQADFEVYDGEIFVIMGLSGSGKSTLVRMLNRLIEPTAGNIYIDGDMITNMSKDQLREVRRKKISMVFQKFALFPHRTILENTEYGLELQGVDKQERQQKALESLKLVGLEGFEHQYPDQLSGGMQQRVGLARALTNDPDILLMDEAFSALDPLIRKDMQDELLDLHDNVGKTIIFITHDLDEALRIGDRIVLMKDGNIVQIGTPEEILMNPSNEYVEKFVEDVDLSKVLTAGHIMKRAETVRIDKGPRVALTLMKNLGISSIYAVDKQKKLLGVIYASDAKKAAESDLSLQDILNTEFTTVPENTYLTEIFDVVSDANIPIAVVDEKQRMKGIVVRGALIGALAGNNEYINAEGTNEQTQDPSAQEVK
With B1, the binding entry in assay [1] is given as “binds”.

B2: YtoP (protein, UniProt O34924 1-357)
chain: MNQETKALFQTLTQLPGAPGNEHQVRAFMKQELAKYADDIVQDRLGSVFGVRRGAEDAPRIMVAGHMDEVGFMVTSITDNGLLRFQTLGGWWSQVLLAQRVEIQTDNGPVPGVISSIPPHLLTDAQRNRPMDIKNMMIDIGADDKEDAIKIGIRPGQQIVPVCPFTTMANEKKILSKAWDNRYGCGLSIELLKELHGKELPNTLYAGATVQEEVGLRGAQTASHMIKPDLFFALDASPANDMSGDKNEFGQLGKGFLLRILDRTTVMHRGMREFVLDMAETHDIPYQYFVSGGGTDAGKVHISNSGVPSAVIGICSRYIHTNATIIHIDDYAAAKEMLIKLVTACDKQTVDAIKENM
In the case of B2, the binding entry in assay [2] is given as “binds”.

B3: RocA (enzyme, UniProt P39634 1-515)
chain: MTVTYAHEPFTDFTEAKNKTAFGESLAFVNTQLGKHYPLVINGEKIETDRKIISINPANKEEIIGYASTADQELAEKAMQAALQAFDSWKKQRPEHRANILFKAAAILRRRKHEFSSYLVKEAGKPWKEADADTAEAIDFLEFYARQMLKLKEGAPVKSRAGEVNQYHYEALGVGIVISPFNFPLAIMAGTAVAAIVTGNTILLKPADAAPVVAAKFVEVMEEAGLPNGVLNYIPGDGAEIGDFLVEHPKTRFVSFTGSRAVGCRIYERAAKVQPGQKWLKRVIAEMGGKDTVLVDKDADLDLAASSIVYSAFGYSGQKCSAGSRAVIHQDVYDEVVEKAVALTKTLTVGNPEDPDTYMGPVIHEASYNKVMKYIEIGKSEGKLLAGGEGDDSKGYFIQPTIFADVDENARLMQEEIFGPVVAICKARDFDHMLEIANNTEYGLTGALLTKNRAHIERAREDFHVGNLYFNRGCTGAIVGYQPFGGFNMSGTDSKAGGPDYLILHMQAKTTSEAF
As to B3, the binding result in assay [3] was “binds”.

B4: LutA (protein, UniProt O07020 1-238)
chain: MKVSLFVTCLVDMFQTNVGKATVELLERLGCEVDFPEGQICCGQPAYNSGYVHDAKKAMKRMIETFQDSEYVVSPSGSCTTMFREYPHLFQDDPKWADKAKKLADKTYELTDFIVNVLGVEDVGATLHTKATLHTSCHMTRLLGVRKEPMKLLSHVKGLQFTELPGKHNCCGFGGTFSVKMAQISEQMVDEKVECVEETGAEVLIGADCGCLMNIGGRLGRKDKNVKVMHIAEVLNSR
Regarding B4, the binding entry in assay [4] is given as “binds”.

B5: YtpR (protein, UniProt O34943 1-201)
chain: MNAFYNKEGVGDTLLISLQDVTREQLGYEKHGDVVKIFNNETKETTGFNIFNASSYLTIDENGPVALSETFVQDVNEILNRNGVEETLVVDLSPKFVVGYVESKEKHPNADKLSVCKVNVGEETLQIVCGAPNVDQGQKVVVAKVGAVMPSGLVIKDAELRGVPSSGMICSAKELDLPDAPAEKGILVLEGDYEAGDAFQF
For B5, the binding entry in “cross-linking” is reported as “binds”.

B6: YozC, bacterial two-hybrid fusion (protein, UniProt O31848 1-67)
chain: MIHKNWLEKETIKKVKCVQTNAKKYIVNRVLTPGKEYEVKNETEEFLFVVDNTNKVGGYYKEYFEEM
B6: the binding entry in assay [5] is recorded as “binds”.
